{"source": "PubChem BioAssay AID504791 (Drosophila RNAi Screening Center, 2011)", "screen": "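Genes of the fly required for silencing by miRNA, siRNA or endo-siRNA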 (primary screen)", "cells": "Drosophila S2-derived reporter cells", "knock-down reagent": "long dsRNA against Drosophila genes, about 150-250 ng dsRNA per well (siRNA assay); about 80-120 ng (miRNA assay)", "timing": "about 5 days (siRNA assay); about 4 days (miRNA assay)", "conditions": "copper sulfate induction of reporters: 25 µM (siRNA assay); 200 mM stated (miRNA assay), 1-2 days before reading", "measurement": "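Dual luciferase assay: Renilla to firefly signal ratio in each well, scaled to the mean ratio of its plate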", "reading the numbers": "siRNA reporter hit score: higher = 3 marks a strong hit with raised ratio; -3 a strong hit with lowered ratio", "hit rule": "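a well was a first-pass pick when its plate-scaled ratio rose above 1.5 (siRNA assay) or 1.6 (miRNA assay), or dropped below 0.6; a gene counted only if two separate dsRNAs agreed on retest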", "note": "In all, the deposit lists about 23,000 reagents; this is a random part of those that have a named target and a result. Of all reagents, 199 (0.86%) are marked active. 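Plate-scaled ratios behind the calls are not deposited; printed light signals are raw; many rows marked increased or decreased are still called inactive.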 A number with no mark means an inactive call."}
{"gene": "Osi14", "amplicon": "DRSC12368", "stable assay Renilla, run 1 (luminescence)": 6180, "stable assay firefly, run 1 (luminescence)": 5.17e5}
{"gene": "cpb", "amplicon": "DRSC00809", "stable assay Renilla, run 1 (luminescence)": 17443, "stable assay firefly, run 1 (luminescence)": 8.98e5}
{"gene": "CG12123", "amplicon": "DRSC17818", "stable assay Renilla, run 1 (luminescence)": 8764, "stable assay firefly, run 1 (luminescence)": 4.27e5}
{"gene": "P5CDh1", "amplicon": "DRSC11801", "stable assay Renilla, run 1 (luminescence)": 10916, "stable assay firefly, run 1 (luminescence)": 5.49e5}
{"gene": "Mco1", "amplicon": "DRSC02720", "stable assay Renilla, run 1 (luminescence)": 6962, "stable assay firefly, run 1 (luminescence)": 3.82e5}
{"gene": "lectin-24Db", "amplicon": "DRSC00553", "stable assay Renilla, run 1 (luminescence)": 13378, "stable assay firefly, run 1 (luminescence)": 8.08e5}
{"gene": "CG14422", "amplicon": "DRSC17919", "stable assay Renilla, run 1 (luminescence)": 5900, "stable assay firefly, run 1 (luminescence)": 4.18e5}
{"gene": "RpL24", "amplicon": "DRSC03185", "stable assay Renilla, run 1 (luminescence)": 6734, "stable assay firefly, run 1 (luminescence)": 3.28e5}
{"gene": "CG33340", "amplicon": "DRSC14615", "stable assay Renilla, run 1 (luminescence)": 8118, "stable assay firefly, run 1 (luminescence)": 4.01e5}
{"gene": "CG15147", "amplicon": "DRSC02447", "stable assay Renilla, run 1 (luminescence)": 4947, "stable assay firefly, run 1 (luminescence)": 4.12e5}
{"gene": "CG15147", "amplicon": "DRSC02448", "stable assay Renilla, run 1 (luminescence)": 8021, "stable assay firefly, run 1 (luminescence)": 6.29e5}
{"gene": "ND-B12", "amplicon": "DRSC04060", "stable assay Renilla, run 1 (luminescence)": 7750, "stable assay firefly, run 1 (luminescence)": 4.61e5}
{"gene": "CG13678", "amplicon": "DRSC10036", "stable assay Renilla, run 1 (luminescence)": 4120, "stable assay firefly, run 1 (luminescence)": 3.64e5}
{"gene": "AGO2", "amplicon": "DRSC09999", "siRNA reporter hit score": 3, "stable siRNA reporter change": "reporter ratio raised past the hit cutoff", "stable assay Renilla, run 1 (luminescence)": 15248, "stable assay firefly, run 1 (luminescence)": 4.85e5}
{"gene": "AGO2", "amplicon": "DRSC10847", "siRNA reporter hit score": "3 (active)", "stable siRNA reporter change": "reporter ratio raised past the hit cutoff", "stable assay Renilla, run 1 (luminescence)": 20845, "stable assay firefly, run 1 (luminescence)": 3.26e5}
{"gene": "CG3857", "amplicon": "DRSC18542", "stable assay Renilla, run 1 (luminescence)": 7398, "stable assay firefly, run 1 (luminescence)": 3.52e5}
{"gene": "CG14043", "amplicon": "DRSC02368", "stable assay Renilla, run 1 (luminescence)": 7018, "stable assay firefly, run 1 (luminescence)": 3.96e5}
{"gene": "CG16723", "amplicon": "DRSC15138", "stable assay Renilla, run 1 (luminescence)": 6255, "stable assay firefly, run 1 (luminescence)": 4.15e5}
{"gene": "EbpII", "amplicon": "DRSC04637", "stable assay Renilla, run 1 (luminescence)": 6726, "stable assay firefly, run 1 (luminescence)": 1.15e6}
{"gene": "EbpII", "amplicon": "DRSC22484", "stable assay Renilla, run 1 (luminescence)": 3283, "stable assay firefly, run 1 (luminescence)": 3.58e5}
{"gene": "5PtaseI", "amplicon": "DRSC16269", "stable assay Renilla, run 1 (luminescence)": 9785, "stable assay firefly, run 1 (luminescence)": 4.15e5}
{"gene": "5PtaseI", "amplicon": "DRSC22090", "stable assay Renilla, run 1 (luminescence)": 10189, "stable assay firefly, run 1 (luminescence)": 6.54e5}
{"gene": "Pbp45", "amplicon": "DRSC16509", "stable assay Renilla, run 1 (luminescence)": 7632, "stable assay firefly, run 1 (luminescence)": 5.44e5}
{"gene": "Cap-D3", "amplicon": "DRSC02349", "stable assay Renilla, run 1 (luminescence)": 7570, "stable assay firefly, run 1 (luminescence)": 4.79e5}
{"gene": "CG33341", "amplicon": "DRSC22887", "stable assay Renilla, run 1 (luminescence)": 4983, "stable assay firefly, run 1 (luminescence)": 4.13e5}
{"gene": "spidey", "amplicon": "DRSC17932", "stable assay Renilla, run 1 (luminescence)": 5391, "stable assay firefly, run 1 (luminescence)": 3.58e5}
{"gene": "rempA", "amplicon": "DRSC00327", "stable assay Renilla, run 1 (luminescence)": 7207, "stable assay firefly, run 1 (luminescence)": 4.15e5}
{"gene": "Obp73a", "amplicon": "DRSC09907", "stable assay Renilla, run 1 (luminescence)": 7234, "stable assay firefly, run 1 (luminescence)": 3.41e5}

2 entries already listed, sorted by “stable assay Renilla, run 1 (luminescence)”, high to low.
{"gene": "CG33340", "amplicon": "DRSC14615", "stable assay Renilla, run 1 (luminescence)": 8118, "stable assay firefly, run 1 (luminescence)": 4.01e5}
{"gene": "RpL24", "amplicon": "DRSC03185", "stable assay Renilla, run 1 (luminescence)": 6734, "stable assay firefly, run 1 (luminescence)": 3.28e5}
